Assay results reported in patent US20250340651A1.
These are yes or no findings as the source states them, for the method shown. Binding can be weak; no strength is given.

Columns and labels:
[1] = target: Recombinant MICA*02 protein; assay: ELISA on coated recombinant antigen (1 µg/ml), goat anti-mouse IgG-HRP, OD 450 nm
[2] = target: Recombinant MICA*04 protein; assay: as above
[3] = target: Recombinant MICA*08 protein; assay: as above
[4] = target: Recombinant MICA*09 protein; assay: as above
[5] = target: Recombinant MICA*02 protein; assay: ELISA on plate-coated recombinant protein
[6] = target: Recombinant MICA*04 protein; assay: ELISA on plate-coated recombinant protein
[7] = target: Recombinant MICA*08 protein; assay: ELISA on plate-coated recombinant protein
[8] = target: Recombinant MICA*09 protein; assay: ELISA on plate-coated recombinant protein
MICA *04-His protein [9] = assay: BLI epitope binning on MICA *04-His immobilised on Ni-NTA sensors; competitors PDI-1 and 3F9
[10] = target: MICA*08 expressed on TRAMP-C2 cells (TC2-MICA-08); assay: flow cytometry on TC2-MICA-08 cells against parental TC2 cells, 500 ng antibody in 100 µl, PE goat anti-mouse IgG
[11] = target: MICA*08 expressed on TRAMP-C2 cells (TC2-MICA-08); assay: flow cytometry on TC2-MICA-08 cells against parental TC2 cells
[12] = target: MICA*08 expressed on TRAMP-C2 cells (TC2-MICA-08); assay: flow cytometry on TC2-MICA-08 cells against parental TC2 cells; 500 ng antibody in 100 µl
MICA *04-His protein [13] = assay: BLI epitope binning on MICA *04-His immobilised on Ni-NTA sensors; competitor PDI-1

Measured: binding

B1: 16F10.C12 (antibody, V domains shown)
VH: EVQLQESGPGLVAPSQSLSITCTVSGFSLTAFGVNWVRQPPGKGLEWLGMIWGDGNTDYNSTLRSRLSISKDNSKSQVFLKLNSLQTDDTARYFCARETYYGNYAGLGYWGQGTLVTVSA
VL: QIVLTQSPAIMSASIGERVTMTCTASSSVSSNYLHWYQQKPRSSPKLWIYTTSNLASGVPTRFSGSGSGTSYSLTISSMEAEDAATYYCHQFHRSPFTFGSGTKLEIK
not listed: [10] | [11] | [12] | MICA *04-His protein [13]
binds: all other assays above

B2: 3F9.E4 (antibody, V domains shown)
VH: EVQLQESGEGLVKPGGSLKLSCAASGFTFSNYAMSWVRQTPEKRLEWVAYISPGGDYIYYADTVKGRFTISRDNARNTLYLQMSSLKSEDTAMYYCTTDRRHYGSYAMDYWGQGISVTVSS
VL: DIVMTQAAPSVPVTPGESVSISCRSSKSLLHSNGNTYLYWFLQRPGQSPQLLIYRMSNLASGVPDRFSGSGSGTAFTLRISRVEAEDVGVYYCMQHLEYPFTFGSGTKLEIK
not listed: MICA *04-His protein [9]
binds: all other assays above
